From article PMC6273140, “Anti-Inflammatory Chemical Profiling of the Australian Rainforest Tree Alphitonia petriei (Rhamnaceae)” (Molecules, 2016)

Each molecule was assayed on NO production in LPS + IFN-γ activated RAW 264.7 macrophages (assay: Inhibition of LPS + IFN-γ induced nitric oxide production (Griess assay)). Conditions: cytotoxicity LC50 compared to NO IC50, RAW 264.7.
Type: cell-based
Description: RAW 264.7 macrophages were grown in 175 cm^2 flasks on DMEM containing 5% foetal bovine serum (FBS) that was supplemented with penicillin (100 μg/mL), streptomycin (100 μg/mL) and L-glutamine (2 mM). The cell line was maintained in 5% CO2 at 37 °C, with media being replaced every 3–4 days. Once cells had grown to confluence in the culture flask, they were removed using a rubber policeman, as opposed to using trypsin, which can remove membrane-bound receptors. The cell suspension was concentrated by centrifugation for 3 min at 900 rpm and re-suspended in a small volume of fresh DMEM (with 1% antibiotics and 5% FBS); cell densities were estimated using a Neubauer counting chamber. The cell concentration was adjusted with DMEM (with 1% antibiotics and 5% FBS) to obtain 60,000 cells/100 μL cell suspension. An aliquot of 100 μL of this cell suspension was dispensed into the wells of 96-well plates. Plates were incubated at 37 °C, 5% CO2 for 18 h before the activation experiments were carried out.
For assays, 90 μL of each concentration of compounds (8 concentrations made by serial dilution from 0 µg/mL to 36 µg/mL compound in DMEM) were added an hour prior to addition of 10 µL of activator. A combination of 10 μg·mL^−1 LPS and 10 U·mL^−1 (1 unit = 0.1 ng/mL) IFN-γ, were used for activation. After activation, the cells were incubated for 24 h at 37 °C and then NO, TNF-α and cell viability was determined. Unactivated cells (exposed to media alone) were used as negative control and activated cells as positive control.
Nitric oxide was determined by Griess reagent quantification of nitrite. Griess reagent was freshly made up of equal volumes of 1% sulfanilamide and 0.1% napthyethylene-diamine in 5% HCl. From each well, 50 µL of supernatant was transferred to a fresh 96-well plate and mixed with 50 µL of Griess reagent and measured at 540 nm in a POLARstar Omega microplate reader (BMG Labtech, Mornington, Australia). The concentration of nitrite was calculated using a standard curve with […] (0–500 μM), and linear regression analysis.
Data calculations were performed using MS-Excel 2010 software. IC50 values were obtained by using the sigmoidal dose–response function in GraphPad Prism. The results were expressed as mean ± standard deviation (SD).

Row | SMILES | Therapeutic Index (TI) (Compared to NO)
1 | C=C(C)[C@@H]1CC[C@]2(C(=O)O)CC[C@]3(C)[C@H](CC[C@@H]4[C@@]5(C)CC[C@H](O)C(C)(C)[C@@H]5CC[C@]43C)[C@@H]12 [Compound 5, betulinic acid] | 3.5
2 | C=C(C)[C@@H]1CC[C@]2(C(=O)O)CC[C@]3(C)[C@H](CC[C@@H]4[C@@]5(C)C[C@@H](OC(=O)/C=C/c6ccc(O)cc6)[C@H](O)C(C)(C)[C@@H]5CC[C@]43C)[C@@H]12 [Compound 3, trans-coumaroyl alphitolic acid] | 2.8
3 | C=C(C)[C@@H]1CC[C@]2(C(=O)O)CC[C@]3(C)[C@H](CC[C@@H]4[C@@]5(C)C[C@@H](OC(=O)/C=C\c6ccc(O)cc6)[C@H](O)C(C)(C)[C@@H]5CC[C@]43C)[C@@H]12 [Compound 4, cis-coumaroyl alphitolic acid] | 2.3
4 | C=C(C)[C@@H]1CC[C@]2(C(=O)O)CC[C@]3(C)[C@H](CC[C@@H]4[C@@]5(C)[C@@H](C(=O)O)[C@H](OC(C)=O)C(C)(C)[C@@H]5CC[C@]43C)C12 (some centres unmarked) [Compound 6, emmolic acid acetate] | 0.9
5 | C=C(C)[C@@H]1CC[C@]2(C(=O)O)CC[C@]3(C)[C@H](CC[C@@H]4[C@@]5(C)C[C@@H](O)[C@H](O)C(C)(C)[C@@H]5CC[C@]43C)[C@@H]12 [Compound 2, alphitolic acid] | 1
